# From PubChem BioAssay AID248 (DTP/NCI, 2004)
# The list does not hold the whole screen: it is rich in T/C values a quarter to a half above the control, in often repeated tests (any T/C) and in doses without a T/C. Other doses and runs of a compound stand elsewhere. T/C: endpoint of the treated group in % of that of the vehicle group. Some doses have a count of surviving animals in place of a T/C: the source files T/C as zero there, which appears to mark a toxic dose or a test without result, not a measured value. Some survivor counts are full or nearly so, which does not show that the dose was tolerated: the source hardly ever lists a survival T/C far under the control, and the zero likely stands for such cases as well. Survivors were counted at the toxicity check, usually on the fifth day, unless a day is given; later deaths do not show. Schedule codes are those of the source, read here as Q, the interval in days (D) or hours (H), X, the number of doses. Some schedule codes hold Z or #, which are not explained here. Some structures stand for samples that the source files as different forms (salt, stereo form or complex); doses refer to the form tested. Where survival is the endpoint, this PubChem deposit counts one and a half times the control or more as active, and values a quarter to a half above the control carry no call in these data; other NCI protocols may use other cut-offs. Some T/C values carry the count of animals alive at the toxicity check (mostly the fifth day); where none is given, no animal had died by that day.
# Tested on: L1210 leukemia ip in BDF1 mice, survival T/C
# Assay: NCI In Vivo Anticancer Drug Screen. Data for tumor model L1210 Leukemia (intraperitoneal) in B6D2F1 (BDF1) mice
# Settings: T/C endpoint: mean survival time, higher T/C = longer survival
# [1] = dose: 200.0 mg/kg/injection, schedule: Q04DX003 (ip), vehicle: saline with Tween-80
# [2] = dose: 400.0 mg/kg/injection, schedule: Q04DX003 (ip), vehicle: saline with Tween-80
# [3] = dose: 200.0 mg/kg/injection, schedule: Q01DX001 (ip), vehicle: carboxymethylcellulose (CMC)
# [4] = dose: 400.0 mg/kg/injection, schedule: Q01DX001 (ip), vehicle: carboxymethylcellulose (CMC)
# [5] = dose: 50.0 mg/kg/injection, schedule: Q01DX009 (ip), vehicle: saline
# [6] = dose: 400.0 mg/kg/injection, schedule: Q04DX003 (ip), vehicle: saline
# [7] = dose: 400.0 mg/kg/injection, schedule: Q01DX001 (ip), vehicle: saline
# [8] = dose: 400.0 mg/kg/injection, schedule: Q01DX009 (ip), vehicle: saline with Tween-80
# [9] = dose: 200.0 mg/kg/injection, schedule: Q01DX001 (ip), vehicle: saline
# [10] = dose: 400.0 mg/kg/injection, schedule: Q04DX003 (ip), vehicle: Klucel (hydroxypropylcellulose) (HPC)
# [11] = dose: 200.0 mg/kg/injection, schedule: Q01DX009 (ip), vehicle: saline
# [12] = dose: 100.0 mg/kg/injection, schedule: Q04DX003 (ip), vehicle: saline
# [13] = dose: 200.0 mg/kg/injection, schedule: Q04DX003 (ip), vehicle: saline
# [14] = dose: 400.0 mg/kg/injection, schedule: Q04DX002 (ip), vehicle: Klucel (hydroxypropylcellulose) (HPC)
# [15] = dose: 100.0 mg/kg/injection, schedule: Q01DX009 (ip), vehicle: saline
smiles,measurement,setting,value
Cc1ccc(C)c(C(=O)CCCCl)c1,survivor count,[1],4 of 6
same,survivor count,[2],0 of 6
CSc1ncnc2c1N=CNN2,survivor count,[3],0 of 6
same,survivor count,[4],0 of 6
O=C(/C(=C\c1ccccc1)N1CCOCC1)c1ccc(Cl)cc1,survivor count,"dose: 150.0 mg/kg/injection, schedule: Q01DX009 (ip), vehicle: Klucel (hydroxypropylcellulose) (HPC)",1 of 6
same,survivor count,[1],6 of 6
same,survivor count,"dose: 225.0 mg/kg/injection, schedule: Q01DX009 (ip), vehicle: Klucel (hydroxypropylcellulose) (HPC)",3 of 6
same,survivor count,[2],1 of 6
C[n+]1ccccc1/C=N/O,T/C,[5],132 % of control
same,survivor count,"dose: 300.0 mg/kg/injection, schedule: Q01DX009 (ip), vehicle: Klucel (hydroxypropylcellulose) (HPC)",0 of 6
same,survivor count,"dose: 400.0 mg/kg/injection, schedule: Q01DX009 (ip), vehicle: saline",0 of 6
same,survivor count,[6],0 of 6
CCCCNC(=O)NNC(=O)CCCC(=O)NNC(=O)NCCCC,survivor count,[7],0 of 4
COC(/C=C\C(OC)OC)OC,survivor count,"dose: 100.0 mg/kg/injection, schedule: Q04DX003 (ip), vehicle: alcohol",6 of 6
same,survivor count,"dose: 200.0 mg/kg/injection, schedule: Q04DX003 (ip), vehicle: alcohol",3 of 6
same,survivor count,"dose: 400.0 mg/kg/injection, schedule: Q04DX003 (ip), vehicle: alcohol",0 of 6
CC1(C)CNC(C(=O)O)C1 (stereo unspecified),survivor count,[8],6 of 6
C1CCCCCC(C2CCCCCCCCCCC2)CCCCC1,survivor count,[9],6 of 6
same,survivor count,[7],6 of 6
COc1cc(Br)c(CC2c3cc(OCc4ccccc4)c(OC)cc3CCN2C)cc1OC (stereo unspecified),survivor count,"dose: 200.0 mg/kg/injection, schedule: Q04DX003 (ip), vehicle: acetone",1 of 6
same,survivor count,"dose: 400.0 mg/kg/injection, schedule: Q04DX003 (ip), vehicle: acetone",0 of 6
O=C(O)C1C2CC3C(C2)C31.[Ag] (stereo unspecified),survivor count,"dose: 10.0 mg/kg/injection, schedule: Q01DX009 (ip), vehicle: Klucel (hydroxypropylcellulose) (HPC)",6 of 6
same,survivor count,"dose: 40.0 mg/kg/injection, schedule: Q01DX009 (ip), vehicle: Klucel (hydroxypropylcellulose) (HPC)",6 of 6
same,survivor count,"dose: 80.0 mg/kg/injection, schedule: Q04DX003 (ip), vehicle: Klucel (hydroxypropylcellulose) (HPC)",2 of 6
same,survivor count,"dose: 100.0 mg/kg/injection, schedule: Q04DX003 (ip), vehicle: Klucel (hydroxypropylcellulose) (HPC)",3 of 6
same,survivor count,"dose: 200.0 mg/kg/injection, schedule: Q04DX003 (ip), vehicle: Klucel (hydroxypropylcellulose) (HPC)",0 of 6
same,survivor count,[10],0 of 6
CCC(=O)c1ccc(NC(=S)Nc2ccccc2)cc1,survivor count,"dose: 160.0 mg/kg/injection, schedule: Q01DX009 (ip), vehicle: saline with Tween-80",6 of 6
Cc1ccc(-n2c(O)c(C=N)c(=O)[nH]c2=O)cc1,survivor count,[8],5 of 6
CC1OC(n2cnc3c(N)nc(F)nc32)C(O)C1O (stereo unspecified),survivor count,"dose: 75.0 mg/kg/injection, schedule: Q01DX001 (ip), vehicle: other",3 of 6
same,survivor count,"dose: 150.0 mg/kg/injection, schedule: Q01DX001 (ip), vehicle: other",0 of 6
CC(CCl)(CCl)CCl,survivor count,"dose: 400.0 mg/kg/injection, schedule: Q01DX001 (ip), vehicle: saline sonified",3 of 6
COc1ccc(C)cc1NC(=S)NC(=O)c1cccc2ccccc12,survivor count,"dose: 50.0 mg/kg/injection, schedule: Q01DX009 (ip), vehicle: Klucel (hydroxypropylcellulose) (HPC)",2 of 6
same,survivor count,"dose: 400.0 mg/kg/injection, schedule: Q01DX009 (ip), vehicle: Klucel (hydroxypropylcellulose) (HPC)",6 of 6
same,survivor count,[10],0 of 6
Clc1ccc2c(Cl)ncnc2c1,survivor count,[11],2 of 6
same,survivor count,[7],3 of 6
C1=CC([P+](Cc2ccccc2)(c2ccccc2)c2ccccc2)CC1 (stereo unspecified),survivor count,[12],0 of 6
same,survivor count,[13],0 of 6
same,survivor count,[6],0 of 6
Cc1cccc(C[As](C)(=O)O)c1,survivor count,[13],2 of 6
same,survivor count,[6],0 of 6
Cc1[nH]c(=S)sc1C,survivor count,"dose: 50.0 mg/kg/injection, schedule: Q04DX003 (ip), vehicle: saline",6 of 6
same,survivor count,[12],6 of 6
same,survivor count,[3],1 of 4
same,survivor count,[11],3 of 6
same,survivor count,[13],6 of 6
same,survivor count,[4],0 of 4
Cc1cc(C)c([S-])c(C)c1.[Cu+],survivor count,"dose: 37.5 mg/kg/injection, schedule: Q01DX001 (ip), vehicle: saline",6 of 6
same,survivor count,"dose: 75.0 mg/kg/injection, schedule: Q01DX001 (ip), vehicle: saline",3 of 6
same,survivor count,"dose: 100.0 mg/kg/injection, schedule: Q01DX001 (ip), vehicle: saline",0 of 6
same,survivor count,[9],0 of 6
same,survivor count,[7],0 of 6
O=c1[nH]c2c(cnn2-c2ccccc2)c(=O)n1O,survivor count,[9],2 of 4
same,survivor count,[7],0 of 4
CCCCCCCN=C(N)c1ccc(C(=O)OC2CCCCC2)cc1,survivor count,[9],6 of 6
same,survivor count,[7],0 of 6
C(=C\c1ccc(C2=NCCN2)cc1)/c1ccc(C2=NCCN2)cc1,survivor count,"dose: 92.0 mg/kg/injection, schedule: Q01DX Z (ip), vehicle: carboxymethylcellulose (CMC)",3 of 6
CSC(N)=S,survivor count,[11],1 of 6
Fc1ccccc1CSc1ncnc2nc[nH]c12,T/C,"dose: 75.0 mg/kg/injection, schedule: Q01DX009 (ip), vehicle: saline",141 % of control
same,survivor count,"dose: 300.0 mg/kg/injection, schedule: Q01DX009 (ip), vehicle: saline",1 of 6
same,survivor count,[7],1 of 6
same,survivor count,"dose: 600.0 mg/kg/injection, schedule: Q01DX001 (ip), vehicle: saline",0 of 6
COc1ccc2c(c1)CNC1c3cc(OC)c(O)cc3CC21 (stereo unspecified),T/C,"dose: 100.0 mg/kg/injection, schedule: Q04DX003 (ip), vehicle: saline with Tween-80",127 % of control [5 of 6 alive]
same,survivor count,[2],0 of 6
CC1C2CC3OC(=O)C1C3C2 (stereo unspecified),survivor count,[4],0 of 4
C=CCC/C(=C/C(=O)OCC)OCC=C,survivor count,"dose: 200.0 mg/kg/injection, schedule: Q01DX009 (ip), vehicle: saline with Tween-80",3 of 3
C/C(=N/NC(=O)c1ccc(N)cc1)c1ccc(C)cc1,survivor count,[14],0 of 3
Cc1cccc(N2CCN(CCO)CC2)c1,survivor count,[15],1 of 3
same,survivor count,[11],0 of 3
CCCC[P+](CCCC)(CCCC)CC(=O)OCC,survivor count,"dose: 30.0 mg/kg/injection, schedule: Q01DX001 (ip), vehicle: carboxymethylcellulose (CMC)",6 of 6
CCCCn1cncc1C,survivor count,"dose: 12.5 mg/kg/injection, schedule: Q01DX009 (ip), vehicle: saline",1 of 3
same,survivor count,"dose: 25.0 mg/kg/injection, schedule: Q01DX009 (ip), vehicle: saline",0 of 3
same,survivor count,[5],0 of 3
same,survivor count,[15],0 of 3
same,survivor count,[11],0 of 3
CCC(C)N(C)N=Nc1ccc(C(N)=O)cc1 (stereo unspecified),survivor count,"dose: 400.0 mg/kg/injection, schedule: Q01DX001 (ip), vehicle: other",0 of 4
same,survivor count,"dose: 600.0 mg/kg/injection, schedule: Q01DX001 (ip), vehicle: other",0 of 4
CCCC#C/C=C1/C=CC(=O)O1,survivor count,"dose: 300.0 mg/kg/injection, schedule: Q01DX001 (ip), vehicle: carboxymethylcellulose (CMC)",0 of 6
CC1(C)C2CCC1(CBr)C(=O)C2 (stereo unspecified),survivor count,"dose: 100.0 mg/kg/injection, schedule: Q04DX002 (ip), vehicle: Klucel (hydroxypropylcellulose) (HPC)",3 of 3
same,survivor count,[14],3 of 3
